Data source: PubChem BioAssay AID588781 (Weizmann Institute, 2011)
This is an unselected part of 85 reagents tested. 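Knockdowns of interest may either weaken or strengthen the stiffness dependence of elongation, so both low and high differences matter.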 Not all columns of the deposit are shown. Not given: the amount of reagent, the time to read-out.

Purpose: 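Tyrosine kinases that adjust fibroblast polarity according to substrate rigidity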
System: human foreskin fibroblasts (HFF)
Reagent: siRNA against human genes
Treatment: cells plated on fibronectin-coated silicone of high versus low stiffness (range about 2 MPa to 5 kPa)
Detection: 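Actin-stained fibroblasts on stiff (about 2 MPa) or soft (about 5 kPa) fibronectin-coated silicone were imaged; shape, stress fibres and edges scored, differences given as (stiff − soft)/stiff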
Scale: stiff-soft elongation difference: higher = elongation depends more strongly on substrate stiffness; aspect ratio, stiff substrate: higher = more elongated cells on stiff substrate

The opening 2 entries, to show the layout:
CSF1R
- stiff-soft elongation difference: 0.02
- aspect ratio, stiff substrate: 1.3

HCK
- stiff-soft elongation difference: 0.33
- aspect ratio, stiff substrate: 2.4

The list itself, from the first entry:
CSF1R
- stiff-soft elongation difference: 0.02
- aspect ratio, stiff substrate: 1.3

HCK
- stiff-soft elongation difference: 0.33
- aspect ratio, stiff substrate: 2.4

NTRK1
- stiff-soft elongation difference: 0.35
- aspect ratio, stiff substrate: 2

FGFR3
- stiff-soft elongation difference: 0.19
- aspect ratio, stiff substrate: 1.6

EPHA7
- stiff-soft elongation difference: 0.18
- aspect ratio, stiff substrate: 1.6

MST1R
- stiff-soft elongation difference: 0.35
- aspect ratio, stiff substrate: 2.3

IGF1R
- stiff-soft elongation difference: 0.35
- aspect ratio, stiff substrate: 2

SRC
- stiff-soft elongation difference: 0.22
- aspect ratio, stiff substrate: 1.8

ERBB4
- stiff-soft elongation difference: 0.07
- aspect ratio, stiff substrate: 1.5

STYK1
- stiff-soft elongation difference: 0.29
- aspect ratio, stiff substrate: 2.1

EPHB6
- stiff-soft elongation difference: 0.22
- aspect ratio, stiff substrate: 1.8

TNK2
- stiff-soft elongation difference: 0.28
- aspect ratio, stiff substrate: 1.8

EPHB2
- stiff-soft elongation difference: 0.2
- aspect ratio, stiff substrate: 1.7

BTK
- stiff-soft elongation difference: 0.22
- aspect ratio, stiff substrate: 2.3

FLT3
- stiff-soft elongation difference: 0.09
- aspect ratio, stiff substrate: 1.7

RYK
- stiff-soft elongation difference: 0.36
- aspect ratio, stiff substrate: 2.5

FGR
- stiff-soft elongation difference: 0.32
- aspect ratio, stiff substrate: 2.2

DDR1
- stiff-soft elongation difference: 0.16
- aspect ratio, stiff substrate: 1.8

KDR
- stiff-soft elongation difference: 0.05
- aspect ratio, stiff substrate: 2.1

ABL2
- stiff-soft elongation difference: 0.38
- aspect ratio, stiff substrate: 2.4

PTK2B
- stiff-soft elongation difference: 0.42
- aspect ratio, stiff substrate: 2.6

JAK3
- stiff-soft elongation difference: 0.38
- aspect ratio, stiff substrate: 2.4

AXL
- stiff-soft elongation difference: -0.05
- aspect ratio, stiff substrate: 2

EPHA1
- stiff-soft elongation difference: 0.29
- aspect ratio, stiff substrate: 1.8

FLT1
- stiff-soft elongation difference: 0.21
- aspect ratio, stiff substrate: 1.9

BLK
- stiff-soft elongation difference: 0.21
- aspect ratio, stiff substrate: 1.9

TIE1
- stiff-soft elongation difference: 0.14
- aspect ratio, stiff substrate: 2.1

EPHA4
- stiff-soft elongation difference: 0.25
- aspect ratio, stiff substrate: 2

MET
- stiff-soft elongation difference: 0.38
- aspect ratio, stiff substrate: 2.1

ROR2
- stiff-soft elongation difference: 0.12
- aspect ratio, stiff substrate: 2.2

ALK
- stiff-soft elongation difference: 0.28
- aspect ratio, stiff substrate: 1.8

LMTK2
- stiff-soft elongation difference: 0.22
- aspect ratio, stiff substrate: 2.3

YES1
- stiff-soft elongation difference: 0.26
- aspect ratio, stiff substrate: 1.9

DDR2
- stiff-soft elongation difference: 0.53
- aspect ratio, stiff substrate: 4.5

LTK
- stiff-soft elongation difference: 0.08
- aspect ratio, stiff substrate: 2.4

JAK2
- stiff-soft elongation difference: 0.2
- aspect ratio, stiff substrate: 2
